According to article PMC12040169 (PLOS Biology, 2025):
The other results are listed elsewhere or left out.

System: T1, CTL2-GFP (C. trachomatis L2/434/Bu, GFP-expressing)
T1 construct: L2/434/Bu, GFP-expressing
Parameters: species or system HeLa; Intracellular C. trachomatis growth in HeLa cells, bulk GFP fluorescence relative to DMSO
Settings: bulk GFP, single well; 28.5 h, 10 µM; inhibitor

SMILES | % of control remaining [%]
COCCNC(=O)c1cc(-c2ccc(C)s2)nc2c1cnn2C(C)C [CBK305051] | 140.453
COc1ccc(-c2nnc(SCC(=O)Nc3ccccc3[N+](=O)[O-])n2C)cc1 [CBK265609] | 133.243
COc1cc(C(C)c2cc3c(cc2O)OCO3)cc(OC)c1OC (centres unmarked) [CBK200103] | 80.31
CC1=C[C@@H](CNS(=O)(=O)c2cccs2)[C@H](C(C)C)C[C@H]1CC(=O)O [CBK289210] | 115.109
O=C(O)c1cccnc1SC1CC(=O)N(c2cccc(Cl)c2Cl)C1=O (centres unmarked) [CBK269306] | 112.151
Nc1ncc(-c2ccc(C(=O)N3CCOCC3)cc2)nc1-c1ccc(Cl)s1 [CBK138510] | 122.104
CC1(C)CC(=O)c2sc(NC(=O)C3CC3)nc2C1 [CBK287329] | 117.558
COc1ccc(-c2ocnc2C(=O)NCCc2ccccc2F)cc1 [CBK283941] | 121.535
CN(C)CCCC(=O)Nc1ccc2c(ccn2Cc2ccccc2)c1 [CBK159740] | 101.531
CN1CCCc2c1oc1c(OCc3cccnc3)cccc1c2=O [CBK007904] | 100
Cc1ccc(C(C)C)c(OCC(=O)N2CCN(Cc3nc4cc([N+](=O)[O-])ccc4n3C)CC2)c1 [CBK268519] | 106.833
CN1CCc2nc(SCc3cccnc3)c(C#N)cc2C1 [CBK267463] | 137.115
CCCCCC(=O)N1CCc2cc(N3CC(CNC(C)=O)OC3=O)ccc21 (centres unmarked) [CBK007646] | 109.324
COc1ccc(-c2c3c(nc4sc(C(=O)N5CCOCC5)c(N)c24)CC(C)(C)CC3=O)cc1 [CBK131884] | 99.5453
O=C1Nc2ccc(S(=O)(=O)NCC(O)c3ccc([N+](=O)[O-])cc3)c3cccc1c23 (centres unmarked) [CBK266745] | 121.747
Cn1nc(C(C)(C)C)cc1NC(=O)CN1CCc2cncnc2C1 [CBK304934] | 109.593
O=C(NCc1cccnc1)N1CCN(c2ccccc2)CC1 [CBK155178] | 111.781
CSc1nnc(CC2CCN(C(=O)c3ccc(C)cc3F)CC2)n1C [CBK306939] | 103.478
COc1ccc2nc(NC(=O)c3ccc4c(c3)OCCO4)sc2c1 [CBK287572] | 110.304
O=C(CO)N1CC2(CCN(CCc3c[nH]c4ccccc34)CC2)c2ccccc21 [CBK131503] | 103.259
CC(=O)Nc1ccc(NC(=O)Cc2n[nH]c(=S)n2Cc2ccccc2)cc1 [CBK296754] | 161.484
COc1ccc(-c2nc(C#N)c(NCCN3CCOCC3)o2)cc1 [CBK265769] | 119.872
Cc1cccc(CC(=O)N2CCC(Cc3ccc(-c4cccc(C)c4)cc3)(C(N)=O)CC2)c1 [CBK285798] | 72.9499
NC(=O)CSc1nnc(NC(=O)c2ccc(Cl)cc2Cl)s1 [CBK287627] | 176.749
Cn1c(SCC(=O)Nc2cc(C(C)(C)C)no2)nnc1-c1ccc(C(C)(C)C)cc1 [CBK297133] | 128.787
N/C(=N\OC(=O)CSc1ccccc1)c1ccccn1 [CBK266056] | 127.358

Rewritten tab-delimited: part of the list above.
SMILES	% of control remaining [%]
COc1ccc2nc(NC(=O)c3ccc4c(c3)OCCO4)sc2c1 [CBK287572]	110.304
O=C(CO)N1CC2(CCN(CCc3c[nH]c4ccccc34)CC2)c2ccccc21 [CBK131503]	103.259

Additional structures follow.

SMILES | % of control remaining [%]
COC1CCC(C(=O)N2CCC(COc3ccc(-c4ccc(S(C)(=O)=O)cc4)cn3)CC2)CC1 (centres unmarked) [CBK161995] | 109.079
O=C(O)CCC(=O)Nc1ccccc1C(=O)NC1CCCCC1 [CBK267674] | 87.0442
COc1cc(-c2cnc3cccnc3c2N)cc(OC)c1OC [CBK081190] | 99.7603
CC1CCN(S(=O)(=O)c2cccc3c(S(=O)(=O)N4CCC(C)CC4)cccc23)CC1 [CBK262071] | 81.4351
Cc1ccc(OCC(=O)N2CCN(C(=O)c3cccs3)CC2)c([N+](=O)[O-])n1 [CBK297152] | 145.276
CN1CCC(C(=O)NC(=O)NCCOc2cccc3ccccc23)CC1 [CBK051100] | 88.0865
Cc1nn(C(C)CC(=O)NCCN2CCc3ccccc32)c(C)c1C (centres unmarked) [CBK282675] | 128.722
Cc1cc(Br)c(O)c(C(=O)N(C)CC(=O)Nc2cc(C)on2)c1 [CBK306002] | 62.4165
CC(=O)Nc1ccc(S(=O)(=O)NC2(C(F)(F)F)C(=O)Nc3c2c(=O)[nH]c(=O)n3CCc2ccccc2)cc1 (centres unmarked) [CBK267937] | 80.2077
O=C(Cn1cccc2cc(-c3ccc(F)cc3)nc1-2)N1CCOCC1 [CBK284809] | 110.81
COc1ccccc1N(CC(=O)Nc1c(C)cccc1C)S(=O)(=O)c1ccc(C)cc1 [CBK264810] | 127.702
O=C(Nc1ccncc1)c1cnc2cc(C(F)(F)F)ccc2c1O [CBK116633T] | 104.815
CC(C)c1ccccc1NC(=O)NC(=O)C1CCN(CCc2ccc(C#N)cc2)CC1 [CBK035010] | 111.076
CSc1ccc(-n2cc(-c3ccc(F)cc3F)nn2)cc1 [CBK112979] | 128.028
COC(=O)Nc1ccc2c(c1)N(C(=O)CCN(C)C)c1ccccc1CC2 [CBK262972C] | 100
CCn1c(=O)c(C=Cc2cccc(Br)c2)nc2cc(C(=O)O)ccc21 [CBK295364] | 132.255
O=C(NC1CCN(c2ncccn2)CC1)c1ccc[nH]c1=S [CBK241695] | 110.098
CCCNC(=O)c1ccc(C)c(S(=O)(=O)Nc2ccc(C)cc2C)c1 [CBK269084] | 108.967
COC(=O)c1ccccc1NC(=O)CC1Sc2ccccc2NC1=O (centres unmarked) [CBK269400] | 129.114
O=C(NCC1CCCO1)C1CCN(C(=O)c2cccc(F)c2)CC1 (centres unmarked) [CBK304633] | 120.088
Cc1cc(NC(=O)OCc2cccnc2C)c2ccccc2n1 [CBK200129] | 85.1519
CC(C)(C)c1cc(CN)c(C(=O)O)o1 [CBK266510C] | 146.14
O=C(Cn1c(=O)oc2ccccc21)Nc1ccc(N2CCOCC2)c(Cl)c1 [CBK270079] | 103.237
NC(=O)CSc1nnc(-c2cccnc2)n1Cc1ccccc1 [CBK268672] | 94.8792
CN1CCC(N(C)C(=O)Nc2cccnc2)C1 (centres unmarked) [CBK156026] | 142.398
O=C(Cn1cnc2ccccc21)N1CCc2[nH]c3ccccc3c2C1 [CBK281860] | 127.932

A draw from above in order of molar mass, largest number first.
SMILES | % of control remaining [%]
O=C(Cn1cccc2cc(-c3ccc(F)cc3)nc1-2)N1CCOCC1 [CBK284809] | 110.81
O=C(NCC1CCCO1)C1CCN(C(=O)c2cccc(F)c2)CC1 (centres unmarked) [CBK304633] | 120.088
O=C(Cn1cnc2ccccc21)N1CCc2[nH]c3ccccc3c2C1 [CBK281860] | 127.932

(more compounds)

SMILES | % of control remaining [%]
O=C(O)CCSC1=CCS(=O)(=O)c2ccc(Cl)cc21 [CBK013721] | 87.0384
Cc1ccc(Nc2nc(N)nc(CSc3nccn3C)n2)cc1 [CBK266468] | 120.753
CCOC(=O)c1sc(Cl)nc1C(F)(F)F [CBK026746] | 143.766
C[C@@H]1CN(C(=O)OCCn2cccc2)C[C@H](C)O1 [CBK200123] | 126.46
O=C(O)c1cc(S(=O)(=O)Nc2nnc(C(F)(F)F)s2)c(F)cc1Cl [CBK062022] | 107.975
CSCC[C@H](NC(=O)OC(C)(C)C)C(=O)NCc1csc(-c2ccccc2)n1 [CBK092345] | 122.839
CC(=O)N1CCc2sccc2C1c1ccccc1NCc1ccoc1 (centres unmarked) [CBK286432] | 24.592
O=C1/C(=C/NCc2cccnc2)C(c2ccccc2)=NN1c1ccc([N+](=O)[O-])cc1 [CBK262911] | 119.352
COc1ccc(C2(C(=O)NCc3cnc(C)cn3)CC2)cc1 [CBK149830] | 104.865
Cc1nc(SCC(N)=O)nc(C)c1CCC(=O)NCc1ccc(F)cc1 [CBK295201] | 124.803
CC(C)CN1CCCN(S(=O)(=O)c2ccc(-n3cnc(Cl)c3Cl)cc2)CC1 [CBK063017] | 104.763
Cc1ccc(/C=C/C(=O)O)cc1S(=O)(=O)NCCO [CBK264404] | 100
O=c1n(C(c2ccccc2)c2ccccc2)ccn1S(=O)(=O)c1ccc(Oc2ccccc2)cc1 [CBK106624] | 100.377
Cc1ccc2oc([C@H]3CN(C(=O)C4CCN(C(=O)OC(C)(C)C)CC4)C[C@@H]3C(=O)O)cc2c1 [CBK001601] | 134.23
CC1(C)CC(=O)c2c(O)cc(OCC(=O)c3ccc(Cl)c(Cl)c3)cc2O1 [CBK267573] | 130.85
O=C(CNS(=O)(=O)c1cccc(Cl)c1)Nc1ccc(-c2nc3ccccc3s2)cc1 [CBK267178] | 156.664
COc1ccc(CC(=O)N2CCCC(c3nc(C)c4c(n3)N(CC3CC3)CCC4)C2)cc1 (centres unmarked) [CBK286228] | 5.486
C/C(=N\NC(=O)CCC(=O)Nc1ccccc1C)c1ccc(O)cc1O [CBK261946] | 127.586
COc1ccc(C)cc1-n1ccc(C(=O)N2CCSCC2)n1 [CBK305972] | 151.209
Cn1cccc1C(=O)NCCNC(=O)c1cc2ccccc2[nH]1 [CBK297894] | 89.019
Cc1cc(C(=O)N2CC3CCCC(O)(c4cccn4C)C3C2)c(C)[nH]1 (centres unmarked) [CBK284514] | 115.844
CC(=O)Nc1ccc(NC(=O)c2cc(-c3ccc(Cl)cc3Cl)nc3ccccc23)cc1 [CBK265080] | 100
O=C(CSc1nc2ccccc2[nH]1)n1c2c(c3ccccc31)CCCC2 [CBK263945] | 99.0451
CN1C(=O)/C(=C2\SC(=S)N(C(Cc3ccccc3)C(=O)O)C2=O)c2ccccc21 (centres unmarked) [CBK263507] | 113.104
Cn1cc(C(Nc2cccc(C#N)n2)[C@H]2C[C@H](O)C2)cn1 (some centres unmarked) [CBK307011] | 118.299
